{"source": "patent US20250163387A1", "about": "“HUMAN PITUITARY NEUROENDOCRINE TUMOR ORGANOIDS AND METHODS OF MAKING AND USING THE SAME” (ARIZONA BOARD OF REGENTS OF THE UNIVERSITY OF ARIZONA, A …, priority 2022, published 2025)", "assay_type_in_all_cases": "cell-based, human", "key": {"hPITO37": {"test_system": "hPITO37", "assay": "Drug dose response, MTS cell viability assay with AUC", "conditions": "hPITO37 (Crooke's cell adenoma subtype)"}, "FKBP5": {"test_system": "FKBP5", "assay": "GR modulation: GR target gene FKBP5 expression in PitNET organoids"}, "SSTR5": {"test_system": "SSTR5", "assay": "Differential expression of SSTR5 in iPSC generated pituitary tumor organoids", "conditions": "iPSC^ctrl organoids; drug alone (Mife 500 nM, GANT 5 uM, Keto 10 uM, Dexa 100 nM)"}, "SSTR2": {"test_system": "SSTR2", "assay": "Differential expression of SSTR2 in iPSC generated pituitary tumor organoids", "conditions": "iPSC^ctrl organoids; drug alone (Mife 500 nM, GANT 5 uM, Keto 10 uM, Dexa 100 nM)"}}, "note": "For some of these results: The name of at least one read-out is uncertain. For some of these results: At least one structure is not confirmed: it was looked up by name or label, or the drawing left a doubt. Numbered stars: 1 amine (or outer) side, 2 acyl side, 3 side chain; on linkers, the order of the positions; unused ones are H or OH. Square brackets hold non-standard residues; d marks the D form. Side chains are listed from the residue outwards. Peptide text beside a SMILES is read from it. * marks the point of attachment. Ethylenediamine = C(CN[*:2])N[*:1]; Hyp = O=C(O)[C@@H]1C[C@@H](O)CN1; Phg = N[C@H](C(=O)O)c1ccccc1; CO = O=C([*:1])[*:2]; Bn = c1ccc(C*)cc1", "data": [{"smiles": "NCCCC[C@@H]1NC(=O)[C@@H](Cc2c[nH]c3ccccc23)NC(=O)[C@H](c2ccccc2)NC(=O)[C@@H]2C[C@@H](OC(=O)NCCN)CN2C(=O)[C@H](Cc2ccccc2)NC(=O)[C@H](Cc2ccc(OCc3ccccc3)cc2)NC1=O", "note": "[Pasireotide] (cyclo([Hyp]([CO-Ethylenediamine])[Phg][dW]KY(Bn)F))", "values": [{"measurement": "Sensitivity in dose response (AUC, IC50)", "setting": "hPITO37", "result": "insensitive"}]}, {"smiles": "C[C@@H]1C[C@H]2[C@@H]3CCC4=CC(=O)C=C[C@]4(C)[C@@]3(F)[C@@H](O)C[C@]2(C)[C@@]1(O)C(=O)CO", "note": "[dexamethasone]", "values": [{"measurement": "differential expression of FKBP5", "setting": "FKBP5", "result": "significant induction"}, {"measurement": "differential expression of SSTR5", "setting": "SSTR5", "result": "significantly decreased"}, {"measurement": "differential expression of SSTR2", "setting": "SSTR2", "result": "significantly decreased"}]}]}
